Three molecules from US11261216B2, “Engineered hepatitis B core polypeptide” (priority 2018, dated 2022) can be followed below.

This data set can be described thus: Cargo loading inside VLPs (SEC, radioactivity and fluorescence or HPLC).

Take `COc1cc2cc(c1Cl)N(C)C(=O)C[C@H](OC(=O)[C@H](C)N(C)C(=O)CCS)[C@]1(C)O[C@H]1[C@H](C)[C@@H]1C[C@@](O)(NC(=O)O1)[C@H](OC)/C=C/C=C(\C)C2` [Mertansine]: the “amount of loaded Mertansine” value (assembly at 2.5 M NaCl with DMF or DMSO, SEC washed, HPLC after reduction and disassembly with 2% SDS) is more than 300 molecules per VLP.

On to BODIPY FL-Cysteine [BDFL], for which the “BDFL loaded and retained per VLP” value (hydrophobic loading domain with cysteine, disulfide formed with 10 mM diamide, after several washes) is given as approximately 450 molecules per VLP.

On to Rhodamine 123, for which, where the note is “HepBc with hydrophobic and negatively charged C-terminal loading domain after the hexahistidine tag, before wash steps”, the “Rhodamine 123 associated with the VLP” value is reported as “about 1000 molecules per VLP”. Under “successive SEC column washes of Rhodamine 123 loaded VLPs”, the “retention of loaded cargo during wash steps” value is listed as “lost during the wash steps”.
